Experimental data taken from paper PMC3498349.

Protein sequences, listed by entry. Tags and fused reporters are not part of them. Lines headed by an entry give the natural chain unless they say otherwise; changes in a name come on top.
UniProt O15169: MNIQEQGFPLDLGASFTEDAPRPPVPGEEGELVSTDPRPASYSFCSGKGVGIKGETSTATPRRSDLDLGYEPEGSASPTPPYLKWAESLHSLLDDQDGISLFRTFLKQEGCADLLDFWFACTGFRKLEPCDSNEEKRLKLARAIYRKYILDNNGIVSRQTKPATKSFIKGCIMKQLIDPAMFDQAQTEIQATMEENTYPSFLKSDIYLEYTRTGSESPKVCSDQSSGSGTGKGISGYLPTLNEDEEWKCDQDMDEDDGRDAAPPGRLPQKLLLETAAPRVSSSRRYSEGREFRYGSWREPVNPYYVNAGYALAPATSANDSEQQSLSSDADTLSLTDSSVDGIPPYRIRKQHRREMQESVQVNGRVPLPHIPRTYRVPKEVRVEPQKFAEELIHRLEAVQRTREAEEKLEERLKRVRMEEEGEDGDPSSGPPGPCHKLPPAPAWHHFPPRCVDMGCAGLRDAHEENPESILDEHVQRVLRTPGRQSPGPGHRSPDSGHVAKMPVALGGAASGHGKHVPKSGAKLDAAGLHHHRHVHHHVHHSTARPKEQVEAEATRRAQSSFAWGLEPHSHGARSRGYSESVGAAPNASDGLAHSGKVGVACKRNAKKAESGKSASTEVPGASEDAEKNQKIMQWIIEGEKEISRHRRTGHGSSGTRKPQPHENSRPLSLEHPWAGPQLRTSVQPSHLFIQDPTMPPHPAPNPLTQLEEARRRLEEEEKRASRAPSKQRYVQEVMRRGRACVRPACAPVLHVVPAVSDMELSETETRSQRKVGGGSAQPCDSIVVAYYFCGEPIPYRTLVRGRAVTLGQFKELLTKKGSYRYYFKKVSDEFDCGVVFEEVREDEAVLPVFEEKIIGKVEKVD
UniProt P23258: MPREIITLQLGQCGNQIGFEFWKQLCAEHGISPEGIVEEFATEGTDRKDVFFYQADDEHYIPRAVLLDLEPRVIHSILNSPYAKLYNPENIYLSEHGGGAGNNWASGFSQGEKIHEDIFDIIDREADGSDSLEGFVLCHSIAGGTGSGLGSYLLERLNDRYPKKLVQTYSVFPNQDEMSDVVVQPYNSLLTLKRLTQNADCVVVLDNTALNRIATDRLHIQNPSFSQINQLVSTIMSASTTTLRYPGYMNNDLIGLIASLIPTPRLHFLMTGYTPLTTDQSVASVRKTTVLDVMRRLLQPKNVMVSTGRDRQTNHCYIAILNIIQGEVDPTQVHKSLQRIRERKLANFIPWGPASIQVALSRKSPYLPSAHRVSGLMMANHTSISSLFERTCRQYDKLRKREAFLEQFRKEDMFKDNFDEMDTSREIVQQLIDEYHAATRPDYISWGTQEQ

Biological target: Axin (endogenous, HEK293T cells) (human (endogenous in HEK293T)) (UniProt O15169)
Assay: co-IP; endogenous Axin and γ-tubulin in HEK293T cells

binding: binds
Substance: γ-tubulin (endogenous, HEK293T cells) (from UniProt P23258)

These are yes or no findings as the source states them, for the method shown. In cells and extracts the contact can be indirect. Binding can be weak; no strength is given.
